Results are given in words; binding and its absence hold for the method and conditions named. In cells and extracts the contact can be indirect. Some binding calls cover weakened binding; strength is not graded here.
How the values were obtained:
[1] = molecular target: T1, retinoic acid receptor gamma (mouse (endogenous in EpiSCs)) (UniProt P18911); test: co-IP; nuclear extract (200 µg) of EpiSCs cultured in N2B27 without VA, with the RARG agonist CD437 (5.0 nM) and CH (3.0 µM) for 24 hours; anti-RARG antibody at 4°C overnight, Protein G magnetic beads; blot for β-catenin
T1 sequence: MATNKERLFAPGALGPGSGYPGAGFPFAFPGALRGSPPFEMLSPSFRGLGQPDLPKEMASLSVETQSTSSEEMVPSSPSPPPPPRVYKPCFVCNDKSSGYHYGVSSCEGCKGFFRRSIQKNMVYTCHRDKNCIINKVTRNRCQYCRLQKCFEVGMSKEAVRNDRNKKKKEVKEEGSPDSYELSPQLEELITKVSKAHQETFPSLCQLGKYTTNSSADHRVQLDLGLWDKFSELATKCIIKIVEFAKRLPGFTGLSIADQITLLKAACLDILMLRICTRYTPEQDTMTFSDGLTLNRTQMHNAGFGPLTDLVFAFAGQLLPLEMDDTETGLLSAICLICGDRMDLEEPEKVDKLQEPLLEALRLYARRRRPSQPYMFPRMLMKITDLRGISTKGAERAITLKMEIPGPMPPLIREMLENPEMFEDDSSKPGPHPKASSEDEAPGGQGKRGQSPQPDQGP

By UniProt entry, the sequences of proteins in these tests, tags left out.
UniProt Q02248: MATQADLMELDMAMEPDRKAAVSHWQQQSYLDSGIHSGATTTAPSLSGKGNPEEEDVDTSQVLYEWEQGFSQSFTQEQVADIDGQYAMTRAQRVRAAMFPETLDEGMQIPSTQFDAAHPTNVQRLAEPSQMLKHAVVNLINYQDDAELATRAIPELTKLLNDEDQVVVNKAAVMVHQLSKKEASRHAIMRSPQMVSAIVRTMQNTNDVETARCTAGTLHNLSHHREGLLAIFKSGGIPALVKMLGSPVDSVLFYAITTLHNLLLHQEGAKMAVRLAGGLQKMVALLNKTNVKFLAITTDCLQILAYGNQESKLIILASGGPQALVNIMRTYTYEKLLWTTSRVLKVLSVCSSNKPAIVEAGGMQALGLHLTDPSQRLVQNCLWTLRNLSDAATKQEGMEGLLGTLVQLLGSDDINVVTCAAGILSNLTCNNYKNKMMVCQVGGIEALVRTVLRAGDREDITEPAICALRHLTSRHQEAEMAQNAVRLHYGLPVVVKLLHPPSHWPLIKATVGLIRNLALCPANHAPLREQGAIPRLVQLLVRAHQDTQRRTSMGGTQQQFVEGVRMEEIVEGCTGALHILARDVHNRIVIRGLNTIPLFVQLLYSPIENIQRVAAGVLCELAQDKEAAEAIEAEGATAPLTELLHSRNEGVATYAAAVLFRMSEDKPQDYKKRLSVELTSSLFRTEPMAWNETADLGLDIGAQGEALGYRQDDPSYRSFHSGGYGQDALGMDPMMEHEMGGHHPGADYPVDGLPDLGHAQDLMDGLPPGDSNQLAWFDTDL

[2] = molecular target: T1, retinoic acid receptor gamma (mouse (endogenous in EpiSCs)); test: co-IP; nuclear extract (200 µg) of EpiSCs cultured in N2B27 without VA, without CD437; anti-RARG antibody at 4°C overnight, Protein G magnetic beads; blot for β-catenin

β-catenin (from UniProt Q02248 1-781) was tested, and the binding [1] was “binds” and the binding [2] was “binds weakly”.
